Measurements reported in PubChem BioAssay AID1053208 (Peter MacCallum Cancer Centre, 2014).

- Assay: 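Find knock-downs that sensitise mouse osteosarcoma cells to doxorubicin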 (primary screen)
- Cells: mouse osteosarcoma cells, early-passage culture from an engineered mouse model of fibroblastic bone tumour
- Knock-down reagent: siRNA pool against mouse genes, 40 nM
- Time to read-out: about 120 h (48 h before drug, then 72 h with drug)
- Conditions: doxorubicin 100 nM for 72 h, roughly 30-40% inhibitory dose
- Measured: 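Viability read as ATP luminescence after 72 h of 100 nM doxorubicin or none, duplicate wells averaged, scaled to non-targeting siRNA, then expressed as robust z-scores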
- Reading the numbers: viability z-score with doxorubicin: higher = more viable cells under doxorubicin; viability z-score without drug: higher = more viable cells with knock-down alone
- Rule for the call: 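a pool counts as active when its viability z-score with doxorubicin is -2 or below and its z-score without drug lies between -2 and 2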
This is one part, drawn at random, of about 17,000 reagents. Over the whole deposit, 788 (4.7%) are marked active. 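Calls rest on z-score classes alone; an extra cut-off of viability at most 70% of control was not applied to them.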 Not all columns of the deposit are shown.

What did the screen give for Rnd2 (Rho family GTPase 2)?
combined z-score class: no change with or without drug; viability z-score with doxorubicin: -1.35; viability z-score without drug: -0.84; Call: inactive

With Or52e19b (olfactory receptor family 52 subfamily E member 19B), what does the deposit list?
combined z-score class: no change with or without drug; viability z-score with doxorubicin: 0; viability z-score without drug: -0.84; Call: inactive

For Btbd7 (BTB domain containing 7), how do the results read?
combined z-score class: no change with or without drug; viability z-score with doxorubicin: 0; viability z-score without drug: -0.84; Call: inactive

Which result is listed for Atg14 (autophagy related 14)?
combined z-score class: no change with or without drug; viability z-score with doxorubicin: -0.9; viability z-score without drug: 0.51; Call: inactive

How did the screen score Ppp1r3f (protein phosphatase 1, regulatory subunit 3F)?
combined z-score class: no change with or without drug; viability z-score with doxorubicin: 0.45; viability z-score without drug: 0; Call: inactive

How did the screen score Supt4b (SPT4B, DSIF elongation factor subunit)?
combined z-score class: no change with or without drug; viability z-score with doxorubicin: 0.34; viability z-score without drug: 0.51; Call: inactive

What did the screen give for Smim10l2a (small integral membrane protein 10 like 2A)?
combined z-score class: low cell count without drug only; viability z-score with doxorubicin: 1.12; viability z-score without drug: -2.87; Call: inactive

What did the screen give for Or14j6 (olfactory receptor family 14 subfamily J member 6)?
combined z-score class: no change with or without drug; viability z-score with doxorubicin: -1.35; viability z-score without drug: -1.85; Call: inactive

Which result is listed for Mterf2 (mitochondrial transcription termination factor 2)?
combined z-score class: no change with or without drug; viability z-score with doxorubicin: 0.45; viability z-score without drug: -0.17; Call: inactive

What is on record for Spag11a (sperm associated antigen 11A)?
combined z-score class: no change with or without drug; viability z-score with doxorubicin: -1.12; viability z-score without drug: -0.51; Call: inactive

Which result is listed for Wscd1 (WSC domain containing 1)?
combined z-score class: no change with or without drug; viability z-score with doxorubicin: 0.79; viability z-score without drug: 0.51; Call: inactive

With Rapgef1 (Rap guanine nucleotide exchange factor (GEF) 1), how do the results read?
combined z-score class: no change with or without drug; viability z-score with doxorubicin: 0; viability z-score without drug: 1.01; Call: inactive

How did the screen score Adrb3 (adrenergic receptor, beta 3)?
combined z-score class: no change with or without drug; viability z-score with doxorubicin: 0.9; viability z-score without drug: -0.17; Call: inactive

What did the screen give for Invs (inversin)?
combined z-score class: no change with or without drug; viability z-score with doxorubicin: -1.35; viability z-score without drug: -1.18; Call: inactive

With Sh3glb2 (SH3-domain GRB2-like endophilin B2), how do the results read?
combined z-score class: no change with or without drug; viability z-score with doxorubicin: 0; viability z-score without drug: -0.84; Call: inactive

Which result is listed for Fcgr1 (Fc receptor, IgG, high affinity I)?
combined z-score class: no change with or without drug; viability z-score with doxorubicin: -1.35; viability z-score without drug: 0.17; Call: inactive

With Or1e32 (olfactory receptor family 1 subfamily E member 32), how do the results read?
combined z-score class: no change with or without drug; viability z-score with doxorubicin: -0.11; viability z-score without drug: 1.18; Call: inactive

For Hscb (HscB iron-sulfur cluster co-chaperone), what does the deposit list?
combined z-score class: no change with or without drug; viability z-score with doxorubicin: -0.9; viability z-score without drug: 1.18; Call: inactive

For Cand2 (cullin associated and neddylation dissociated 2 (putative)), what was measured?
combined z-score class: high cell count without drug only; viability z-score with doxorubicin: -1.46; viability z-score without drug: 2.36; Call: inactive

With Catsperb (cation channel sperm associated auxiliary subunit beta), what does the deposit list?
combined z-score class: no change with or without drug; viability z-score with doxorubicin: -1.12; viability z-score without drug: -0.34; Call: inactive

For Tssk6 (testis-specific serine kinase 6), what was measured?
combined z-score class: no change with or without drug; viability z-score with doxorubicin: 1.12; viability z-score without drug: 1.18; Call: inactive

With Zfp512 (zinc finger protein 512), how do the results read?
combined z-score class: no change with or without drug; viability z-score with doxorubicin: -0.22; viability z-score without drug: 0.84; Call: inactive

How did the screen score Cnnm1 (cyclin M1)?
combined z-score class: no change with or without drug; viability z-score with doxorubicin: -0.45; viability z-score without drug: -0.17; Call: inactive

What is on record for Dynlrb2 (dynein light chain roadblock-type 2)?
combined z-score class: no change with or without drug; viability z-score with doxorubicin: 1.01; viability z-score without drug: 1.18; Call: inactive

With Fam185a (family with sequence similarity 185, member A), what does the deposit list?
combined z-score class: no change with or without drug; viability z-score with doxorubicin: 0.22; viability z-score without drug: -0.67; Call: inactive

For Itsn2 (intersectin 2), what was measured?
combined z-score class: no change with or without drug; viability z-score with doxorubicin: -0.22; viability z-score without drug: -0.34; Call: inactive

What is on record for Polr3d (polymerase (RNA) III (DNA directed) polypeptide D)?
combined z-score class: no change with or without drug; viability z-score with doxorubicin: 1.35; viability z-score without drug: 1.85; Call: inactive

For Acot13 (acyl-CoA thioesterase 13), what was measured?
combined z-score class: no change with or without drug; viability z-score with doxorubicin: 0.11; viability z-score without drug: 0.67; Call: inactive

For Igfbpl1 (insulin-like growth factor binding protein-like 1), what was measured?
combined z-score class: no change with or without drug; viability z-score with doxorubicin: -1.12; viability z-score without drug: -0.34; Call: inactive

What did the screen give for Obox5 (oocyte specific homeobox 5)?
combined z-score class: no change with or without drug; viability z-score with doxorubicin: -1.12; viability z-score without drug: 0.17; Call: inactive

With Ubd (ubiquitin D), what was measured?
combined z-score class: no change with or without drug; viability z-score with doxorubicin: -0.67; viability z-score without drug: 0.84; Call: inactive

With Fen1 (flap structure specific endonuclease 1), what was measured?
combined z-score class: no change with or without drug; viability z-score with doxorubicin: -0.45; viability z-score without drug: 0.51; Call: inactive

For Ears2 (glutamyl-tRNA synthetase 2, mitochondrial), how do the results read?
combined z-score class: no change with or without drug; viability z-score with doxorubicin: -1.12; viability z-score without drug: -0.51; Call: inactive

For Nol4 (nucleolar protein 4), what does the deposit list?
combined z-score class: low cell count without drug only; viability z-score with doxorubicin: 0; viability z-score without drug: -2.19; Call: inactive

Which result is listed for Phldb1 (pleckstrin homology like domain, family B, member 1)?
combined z-score class: no change with or without drug; viability z-score with doxorubicin: -0.67; viability z-score without drug: 1.18; Call: inactive

Which result is listed for Nxf2 (nuclear RNA export factor 2)?
combined z-score class: no change with or without drug; viability z-score with doxorubicin: -1.69; viability z-score without drug: -0.34; Call: inactive

Records listed so far whose target name starts with C or c:
Cand2 (cullin associated and neddylation dissociated 2 (putative)): combined z-score class = high cell count without drug only; viability z-score with doxorubicin = -1.46; viability z-score without drug = 2.36; Call = inactive
Catsperb (cation channel sperm associated auxiliary subunit beta): combined z-score class = no change with or without drug; viability z-score with doxorubicin = -1.12; viability z-score without drug = -0.34; Call = inactive
Cnnm1 (cyclin M1): combined z-score class = no change with or without drug; viability z-score with doxorubicin = -0.45; viability z-score without drug = -0.17; Call = inactive
